Laboratory results published in patent publication EP0999856B1, “RADIOPHARMACEUTICALS FOR IMAGING INFECTION AND INFLAMMATION” (Bristol-Myers Squibb Pharma Company, priority 1996, dated 1998).
Some of these results come from one statement about several compounds together.

Chains of the proteins cited; added tags and fusions are not shown. Lines headed by an entry give the natural chain unless they say otherwise; changes in a name come on top.
UniProt Q15722: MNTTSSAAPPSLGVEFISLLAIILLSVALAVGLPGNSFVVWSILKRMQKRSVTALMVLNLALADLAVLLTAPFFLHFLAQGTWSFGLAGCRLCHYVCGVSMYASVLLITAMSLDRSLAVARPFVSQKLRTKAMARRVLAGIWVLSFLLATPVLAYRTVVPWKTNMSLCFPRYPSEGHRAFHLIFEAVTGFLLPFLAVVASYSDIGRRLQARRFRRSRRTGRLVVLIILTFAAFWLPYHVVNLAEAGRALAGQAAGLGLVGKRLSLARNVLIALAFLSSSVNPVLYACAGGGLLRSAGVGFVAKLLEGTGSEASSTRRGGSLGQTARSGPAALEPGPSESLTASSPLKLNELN

Biological target: PMN LTB4 receptor (Homo sapiens, UniProt Q15722)
Assay: LTB4 Human Neutrophil (PMN) Binding Assay
Conditions: competition with [3H]LTB4 (1 nM), 10 min at 4° C; call rule not given here

Row | Compound | activity in the LTB4 Human Neutrophil (PMN) Binding Assay
1 | CCc1cc(-c2ccc(F)cc2)c(O)cc1OCCCCC(C)(C)CNC(=O)c1ccc(NN=Cc2ccccc2S(=O)(=O)O)nc1 [Example 1, 4-ethyl-2-(4-fluorophenyl)-[5-[5,5-dimethyl-6-[[6-[[[(2-sulfonylphenyl)methylene]hydrazino]-3-pyridinyl]carbonyl]amino]hexyl]oxy]phenol] | active
2 | O=C(/C=C/c1nc(CSc2ccccc2)ccc1OCCc1ccccc1)NCCCNC(=O)c1ccc(NN=Cc2ccccc2S(=O)(=O)O)nc1 [Example 40, 2-Sulfobenzaldehyde (E)-N-[3-(6-Hydrazinonicotinamido)propyl]-3-[6-[(phenylthio)methyl]-3-(2-phenylethoxy)-2-pyridinyl]-2-propenamide Hydrazone] | active
3 | CCc1cc(CC)c(OCCCCC(C)(C)CNC(=O)c2ccc(NN=Cc3ccccc3S(=O)(=O)O)nc2)cc1O [Example 58, 2,4-Diethyl-[5-[5,5-dimethyl-6-[[6-[[[(2-sulfonylphenyl)methylene]hydrazino]-3-pyridinyl]carbonyl]amino]hexyl]oxy]phenol] | active
4 | C=CCc1c(OCCCCCOc2cccc(OCCOCCOCCOCCNC(=O)c3ccc(NN=Cc4ccccc4S(=O)(=O)O)nc3)c2CCC(=O)O)ccc2c1CCCC2=O [Example 15, Conjugate Between 6-(11-Amino-3,6,9-trioxaundecyloxy)-2-[5-[(5-oxo-1-(2-propenyl)-5,6,7,8-tetrahydro-2-naphthalenyl)oxy]pentyloxy]benzenepropanoic Acid and Benzenesulfonic Acid, 2-[[[5-[[(2,5-Dioxo-1-pyrrolidinyl)-oxy]carbonyl]-2-pyridinyl]hydrazono]methyl]] | active
5 | CCCc1c(OCCCOc2cc(O)c(-c3ccc(F)cc3)cc2CC)ccc2c1OC(C(=O)NCCCOC(=O)C(C)NC(=O)c1ccc(NN=Cc3ccccc3S(=O)(=O)O)nc1)CC2 (stereo not shown) [Example 19] | active
6 | O=C(NCCCNC(=O)C1(c2ccc3c(c2)OCC(Cc2ccc(-c4ccccc4)cc2)=C3)CCCC1)c1ccc(N/N=C/c2ccccc2S(=O)(=O)O)nc1 [Example 46, 2-Sulfobenzaldehyde N-[3-(6-Hydrazinonicotinamido)propyl]-1-[3-([1,1'-biphenyl]-4-ylmethyl)-2H-1-benzopyran-7-yl]-cyclopentanecarboxamide Hydrazone] | active
7 | CCc1cc(-c2ccc(F)cc2)c(O)cc1OCCCCC(C)(C)CNC(=O)c1ccc(NN=Cc2ccccc2)nc1 [Example 16, 4-ethyl-2-(4-fluorophenyl)-[5-[6,6-dimethyl-7-[[6-[[[phenylmethylene]hydrazino]-3-pyridinyl]carbonyl]amino]heptyl]oxy]phenol] | active
8 | CC(C)(CCCCOc1cc(-c2ccccc2)cc(-c2ccc(F)cc2)n1)CNC(=O)c1ccc(NN=Cc2ccccc2S(=O)(=O)O)nc1 [Example 4, 2-[[[5-[[2,2-dimethyl-6-[(6-fluorophenyl-4-phenyl-2-pyridinyl)oxy]-1-hexanamino]carbonyl]-2-pyridinyl]hydrazono]methyl]-benzenesulfonic acid] | active
9 | CC(C)(CCCCOc1cc(-c2ccc3c(c2)OCO3)cc(-c2ccccc2)n1)CNC(=O)Nc1cccc(C(=O)NCCCCC(NC(=O)c2ccc(NN=Cc3ccccc3S(=O)(=O)O)nc2)C(=O)NCC(O)C(O)C(O)C(O)CO)c1 (stereo not shown) [Example 87] | active
10 | CC(C)(CCCCOc1cc(-c2ccccc2)cc(-c2ccccc2)n1)c1nnn(CCCCC(=O)NCCOCCOCCOCCOCCOCCOCCOCCNC(=O)c2ccc(NN=Cc3ccccc3S(=O)(=O)O)nc2)n1 [Example 27, 2-(2-Aza-2-((5-(N-(2-(2-(2-(2-(2-(2-(2-(2-(5-(4-(5-(4,6-diphenyl(2-pyridyloxy))-1,1-dimethylpentyl)(1,2,3,5-tetraazolyl))pentanoylamino)ethoxy)ethoxy)ethoxy)ethoxy)-ethoxy)ethoxy)ethoxy)ethyl)carbamoyl)(2-pyridyl))amino)vinyl)benzenesulfonic Acid] | active
11 | CCc1cc(-c2ccc(F)cc2)c(O)cc1OCCCCNC(=O)c1ccc(NN=Cc2ccccc2S(=O)(=O)O)nc1 [Example 2, 4-ethyl-2-(4-fluorophenyl)-[5-[4-[[6-[[[(2-sulfonylphenyl)methylene]hydrazino]-3-pyridinyl]carbonyl]amino]butyl]oxy]phenol] | active
12 | CCc1cc(-c2ccn[nH]2)c(O)cc1OCCCCC(C)(C)CNC(=O)c1ccc(NN=Cc2ccccc2S(=O)(=O)O)nc1 [Example 13, 4-ethyl-2-(5-pyrazolyl)-[5-[5,5-dimethyl-6-[[6-[[[(2-sulfonylphenyl)methylene]hydrazino]-3-pyridinyl]carbonyl]amino]hexyl]oxy]phenol] | active
13 | CCc1cc(-c2ccc(F)cc2)c(O)cc1OCCCCCC(C)(C)CNC(=O)c1ccc(NN=Cc2ccccc2S(=O)(=O)O)nc1 [Example 12, 4-ethyl-2-(4-fluorophenyl)-[5-[6,6-dimethyl-7-[[6-[[[(2-sulfonylphenyl)methylene]hydrazino]-3-pyridinyl]carbonyl]amino]heptyl]oxy]phenol] | active
14 | CCc1cc(C(C)=O)c(O)cc1OCCCCCCNC(=O)c1ccc(NN=Cc2ccccc2S(=O)(=O)O)nc1 [Example 57, 2-Acetyl-4-ethyl-[5-[6-[[6-[[[(2-sulfonylphenyl)methylene]hydrazino]-3-pyridinyl]carbonyl]amino]hexyl]oxy]phenol] | active
15 | O=C(CCCCCOc1cc(-c2ccccc2)cc(-c2ccccc2)n1)NC(Cc1ccc(OCCCNC(=O)c2ccc(NN=Cc3ccccc3S(=O)(=O)O)nc2)cc1)C(=O)O (stereo not shown) [Example 6, 2-[[[5-[[N-[6-[(4,6-diphenyl-2-pyridinyl)oxy]-hexanoyl]-tyrosine-O-[3-propanamino]]carbonyl]-2-pyridinyl]hydrazono]-methyl]-benzenesulfonic acid] | active
16 | CCc1cc(-c2ccc(F)cc2)c(O)cc1OCCCCC(C)(C)CNC(=O)c1ccc(CN(CCS)CC(=O)NCCS)cc1 [Example 9, 4-ethyl-2-(4-fluorophenyl)-5-[(5,5-dimethyl-6-aminohexyl)oxy]phenol N-[4-(carboxy)benzyl]-N,N'-bis[2-thioethyl]-glycinamide Conjugate] | active
